Source: patent US20220112303A1 (ICHILOV TECH, published 2022)
No constants are given. Whether binding was seen depends on the method and setting. Some entries that bind do so weakly or less than the wild type.

Target: T1, CD24 antigen (UniProt P25063 27-59)
T1 chain: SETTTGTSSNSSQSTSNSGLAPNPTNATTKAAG
Assay: antigen-based ELISA

binding: binds
B1: humanized matured NS17 anti-CD24 antibody (antibody, V domains shown)
VH: QVHLQESGPGLVKPSQTLSLTCAVSGYSISSGYTWHWIRQPPGKTVEWIGYIQYTGSTRYNPALRGRLTMSVDTSKNQFSLKLISVTAADTGVYFCARGTTASFDYWGQGTTVTVSS
VL: DIVMTQSPDSLNVSLGERATIRCRSSQSLLYSSDQKNYLTWYQQKPGQPPKLLISWASPRASGVPDRFSGSGSGTDFTLTISSLQAEDVGVYYCQQYFIYPLTFGVGTKLELK
notes: Tested as whole IgG with human CH1-CH3 and Ck, expressed from the pcDNA4-PCMV-TetO2-IgL-PCMV-TetO2-IgH vector; also called matured antibody
